Data as given in PubChem BioAssay AID1259300 (Sanger Institute, 2017)
The whole screen tested 794 reagents; below is a part drawn at random. 18 of them (2.3%) were called active. 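Calls rest on knock-down alone, not drug synergy; depositor treated synergy scores above 0.15 as synergistic; drug doses alone had little viability effect.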 Viability is capped at 1. Not all columns of the deposit are shown. Reagent sequences are not shown. The record does not give: the amount of reagent, the time to read-out.

Test: 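Kinase and colorectal-mutated gene knock-downs lowering HCT15 viability or boosting drug effects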 (primary screen)
Cells: HCT15 colorectal cancer cells
Reagent: siRNA pool against human genes
Treatment: anchor drug or DMSO vehicle added 24 h after seeding: BYL719 1 µM, cetuximab 5 µg/ml, trametinib 10 nM; drug doses chosen to barely affect viability alone
Measurement: 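Cell viability after knock-down, as fraction of non-targeting pool wells averaged over replicates, plus robust z-score for knock-down alone; synergy score per drug (BYL719 1 µM, cetuximab 5 µg/ml, trametinib 10 nM)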
Direction: viability z-score, siRNA alone: higher = more viable cells after knock-down; viability vs non-targeting, siRNA alone: higher = more viable cells; synergy score with BYL719: higher = stronger synergy of knock-down with drug
Active means: 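a knock-down without drug that drives the robust viability z-score under -3 is active, i.e. essential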
Calls: active = essential: knock-down alone lowers viability (z below -3); inactive = no strong viability loss with knock-down alone

gene symbol | viability z-score, siRNA alone | viability vs non-targeting, siRNA alone | synergy score with BYL719 | outcome
BMPR1A (GeneID 657) | 0.625 | 1 | -0.0556 | inactive
MAP3K1 (GeneID 4214) | -0.312 | 0.932 | 0.0956 | inactive
CKMT2 (GeneID 1160) | 0.625 | 1 | 0.254 | inactive
KRAS (GeneID 3845) | -1.22 | 0.866 | 0.228 | inactive
HUS1 (GeneID 3364) | 0.393 | 0.983 | 0.125 | inactive
IKBKG (GeneID 8517) | -0.406 | 0.925 | 0.162 | inactive
DGKQ (GeneID 1609) | -0.209 | 0.939 | 0.125 | inactive
PFKFB3 (GeneID 5209) | -2.06 | 0.804 | 0.102 | inactive
MAPK3 (GeneID 5595) | -0.148 | 0.944 | 0.0896 | inactive
ANKK1 (GeneID 255239) | 0.195 | 0.969 | 0.207 | inactive
RPS6KB2 (GeneID 6199) | -0.848 | 0.893 | 0.118 | inactive
PRKCB (GeneID 5579) | 0.625 | 1 | 0.183 | inactive
AURKC (GeneID 6795) | 0.625 | 1 | 0.133 | inactive
TAOK1 (GeneID 57551) | 0.625 | 1 | 0.0372 | inactive
PAPSS2 (GeneID 9060) | 0.625 | 1 | 0.0803 | inactive
WIPF1 (GeneID 7456) | -1.84 | 0.821 | 0.0115 | inactive
LRRK2 (GeneID 120892) | 0.625 | 1 | 0.0822 | inactive
MARK4 (GeneID 57787) | 0.625 | 1 | 0.0136 | inactive
ELF3 (GeneID 1999) | -2.12 | 0.8 | 0.0624 | inactive
CAMK2A (GeneID 815) | -0.168 | 0.942 | 0.124 | inactive
FGFR3 (GeneID 2261) | -0.772 | 0.898 | 0.0251 | inactive
INSR (GeneID 3643) | 0.625 | 1 | 0.0556 | inactive
MAP3K9 (GeneID 4293) | -1.63 | 0.836 | 0.22 | inactive
FGFR2 (GeneID 2263) | 0.625 | 1 | 0.0514 | inactive
PGK2 (GeneID 5232) | 0.625 | 1 | 0.181 | inactive
EPHA5 (GeneID 2044) | 0.625 | 1 | 0.109 | inactive
CRIM1 (GeneID 51232) | 0.625 | 1 | 0.0605 | inactive
PASK (GeneID 23178) | -0.088 | 0.948 | 0.16 | inactive

The list goes on; the last 6 above are carried over.
gene symbol | viability z-score, siRNA alone | viability vs non-targeting, siRNA alone | synergy score with BYL719 | outcome
MAP3K9 (GeneID 4293) | -1.63 | 0.836 | 0.22 | inactive
FGFR2 (GeneID 2263) | 0.625 | 1 | 0.0514 | inactive
PGK2 (GeneID 5232) | 0.625 | 1 | 0.181 | inactive
EPHA5 (GeneID 2044) | 0.625 | 1 | 0.109 | inactive
CRIM1 (GeneID 51232) | 0.625 | 1 | 0.0605 | inactive
PASK (GeneID 23178) | -0.088 | 0.948 | 0.16 | inactive
IRAK4 (GeneID 51135) | 0.625 | 1 | 0.182 | inactive
PRPS1 (GeneID 5631) | 0.625 | 1 | 0.234 | inactive
ERBB4 (GeneID 2066) | 0.625 | 1 | 0.26 | inactive
WNK4 (GeneID 65266) | 0.179 | 0.968 | -0.0298 | inactive
BMX (GeneID 660) | 0.625 | 1 | 0.138 | inactive
NIM1K (GeneID 167359) | 0.107 | 0.962 | 0.0535 | inactive
UCK2 (GeneID 7371) | -1.65 | 0.835 | -0.0837 | inactive
EFNA3 (GeneID 1944) | -0.169 | 0.942 | 0.237 | inactive
EEF2K (GeneID 29904) | -1.24 | 0.864 | 0.133 | inactive
GRK1 (GeneID 6011) | -0.452 | 0.922 | 0.0122 | inactive
BTK (GeneID 695) | 0.625 | 1 | 0.173 | inactive
NRAS (GeneID 4893) | 0.625 | 1 | 0.0669 | inactive
CDK8 (GeneID 1024) | 0.625 | 1 | 0.0848 | inactive
PGK1 (GeneID 5230) | -0.769 | 0.899 | 0.153 | inactive
RIOK2 (GeneID 55781) | -0.113 | 0.946 | 0.161 | inactive
GALK1 (GeneID 2584) | -1.43 | 0.85 | 0.0829 | inactive
TYK2 (GeneID 7297) | -0.159 | 0.943 | 0.189 | inactive
MPP3 (GeneID 4356) | 0.625 | 1 | 0.154 | inactive
AXIN2 (GeneID 8313) | 0.466 | 0.988 | 0.166 | inactive
DLG2 (GeneID 1740) | -0.185 | 0.941 | -0.00167 | inactive
RUNX1 (GeneID 861) | 0.232 | 0.971 | 0.327 | inactive
AKT2 (GeneID 208) | -0.216 | 0.939 | 0.238 | inactive
